EC50 data for 1 compound are collected here from paper PMC3203117, “The Bile Acid Receptor GPBAR-1 (TGR5) Modulates Integrity of Intestinal Barrier and Immune Response to Experimental Colitis” (PLoS ONE, 2011).

Amino acid sequences for entries named in this document (tags omitted). A change or cut given only in a name is not applied to a line headed by its entry.
UniProt Q80SS6: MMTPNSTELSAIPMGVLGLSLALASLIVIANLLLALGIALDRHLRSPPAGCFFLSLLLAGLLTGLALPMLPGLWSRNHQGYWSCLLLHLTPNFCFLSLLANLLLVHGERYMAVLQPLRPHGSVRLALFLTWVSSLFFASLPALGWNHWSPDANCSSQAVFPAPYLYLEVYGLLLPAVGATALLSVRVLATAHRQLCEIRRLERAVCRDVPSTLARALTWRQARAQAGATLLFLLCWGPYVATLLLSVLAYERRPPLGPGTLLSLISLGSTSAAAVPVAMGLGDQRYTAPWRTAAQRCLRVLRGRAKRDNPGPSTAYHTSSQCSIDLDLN

The structures appear in SMILES notation.

In this experiment the target is T1, GP-BAR1 (TGR5) (Mus musculus, UniProt Q80SS6).
T1 construct: gene Gpbar1
As to conditions: agonist; native receptor; same compound tested at 10 µM in spleen monocytes of wild type and GP-BAR1-null mice as control.

Usually EC50 stands for the concentration at which the effect is half-maximal. Lower therefore signals higher potency in that assay.

With `O=C(O)c1cn(C2CC2)c2cc(N3CCNCC3)c(F)cc2c1=O` [compound 2, ciprofloxacin], the EC50 is about 8 µM.
